For series [1], the target named is ERK2 (unactivated, unphosphorylated) (UniProt P28482). The series is described as follows: binding assay. To be noted: CITED; affinity of the parental RNA sensor component stated without experimental detail; sequence assigned from listing (Erk Modulated Sensor Component); purified recombinant protein.
A further series has as its target p38 MAPK (UniProt Q16539). The series is described as follows: enzyme reaction in vitro. The conditions noted are these: P38 did not activate the allozyme; variant of ERK2 aptamer (RNA sensor component); dose not given here.
For series [2], the target named is ERK2, phosphorylated (activated) (UniProt P28482). The series is described as follows: enzyme reaction in vitro. To be noted: purified recombinant protein; protein details: phosphorylated form; variant of ERK2 aptamer (RNA sensor component); dose not given here.
For a further series, the system named is JNK. The series is described as follows: enzyme reaction in vitro. To be noted: JNK did not activate the allozyme; variant of ERK2 aptamer (RNA sensor component); dose not given here.
For series [3], the target named is bovine serum albumin (BSA) (Bos taurus) (UniProt P02769). The series is described as follows: enzyme reaction in vitro. The conditions noted are these: BSA in place of ERK2 gave no activation; variant of ERK2 aptamer (RNA sensor component).

Sequences of proteins named here, by UniProt entry; tags and fusion partners are left off. Residues count along the entry.
UniProt Q16539, 2-360: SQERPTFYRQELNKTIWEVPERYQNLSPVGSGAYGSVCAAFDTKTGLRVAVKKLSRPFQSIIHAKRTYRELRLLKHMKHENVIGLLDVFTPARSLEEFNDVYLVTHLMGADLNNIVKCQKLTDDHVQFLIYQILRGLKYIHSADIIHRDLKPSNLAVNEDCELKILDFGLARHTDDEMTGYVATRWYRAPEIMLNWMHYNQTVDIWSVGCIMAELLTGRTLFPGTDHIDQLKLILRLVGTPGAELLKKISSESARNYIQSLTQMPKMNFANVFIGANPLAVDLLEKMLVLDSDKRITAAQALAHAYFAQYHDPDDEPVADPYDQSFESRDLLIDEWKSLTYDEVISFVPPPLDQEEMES
UniProt P02769, 25-607: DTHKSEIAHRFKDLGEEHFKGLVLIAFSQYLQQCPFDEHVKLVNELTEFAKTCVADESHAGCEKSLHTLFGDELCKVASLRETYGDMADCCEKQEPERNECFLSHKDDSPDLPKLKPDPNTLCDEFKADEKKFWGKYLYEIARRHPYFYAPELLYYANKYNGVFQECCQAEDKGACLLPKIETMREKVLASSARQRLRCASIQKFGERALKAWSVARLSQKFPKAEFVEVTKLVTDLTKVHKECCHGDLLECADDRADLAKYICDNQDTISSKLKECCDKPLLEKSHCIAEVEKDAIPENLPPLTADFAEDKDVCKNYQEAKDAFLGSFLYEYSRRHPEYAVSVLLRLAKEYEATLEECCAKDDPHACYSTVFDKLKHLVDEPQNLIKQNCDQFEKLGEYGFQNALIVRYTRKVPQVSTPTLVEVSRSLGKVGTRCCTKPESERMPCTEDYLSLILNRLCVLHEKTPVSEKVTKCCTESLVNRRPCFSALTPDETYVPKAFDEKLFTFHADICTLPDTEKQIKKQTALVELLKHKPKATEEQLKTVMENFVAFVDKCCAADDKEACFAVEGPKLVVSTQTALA

The record followed here is US20020102568.

For some assays here: No signal at the amounts used counts as a negative. For some assays here: For at least one entry, the source does not settle the construct or the ends of the probe.

Take “GGAUAAGGAGGAUUUCCGAAAGCGGCUACGGUCCGCCAUCC [ERK2 aptamer (RNA sensor component)]”: in series [1], the Kd came to 8 ng/mL.

Turning to “GCGUGACCUGAUGAGUCACGCUAAGGAGGAUUUCCGAAAGCGGCUACGGUCCGCCAGUGUUACGAAACGUUCCC [ERK2-responsive hammerhead allozyme]”, the “functional effect of the aptamer” value (with p38 MAPK; in series [2]; in the series on JNK; in series [3]) was “not active” throughout.
